{"source": "PubChem BioAssay AID1224826 (NIAID, 2016)", "test": "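Regulators of Tlr4 signalling leading to Tnf-alpha expression in macrophages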 (primary screen)", "cells": "RAW264.7 G9 macrophages from mouse bearing reporters for p65 (GFP) and the Tnf promoter (mCherry)", "reagent": "siRNA pool against mouse genes, 100 nM", "timing": "16 h of LPS stimulation, after 2 days of siRNA transfection", "treatment": "bacterial lipopolysaccharide (Salmonella minnesota R595), 10 ng/ml", "measured": "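Imaged Tnf reporter mCherry in nuclei, minus background, normalised per plate to the median and expressed as robust z-scores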", "scale": "Tnf reporter robust z-score: higher = stronger Tnf promoter reporter signal after LPS", "hit rule": "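a well counts as active at a score of -1.3 or below (Tlr4 knock-down control median) or above 3 (raised signal); controls and wells holding fewer than 50 cells are excluded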", "meaning of the calls": "active = Tnf reporter clearly lowered or raised; inactive = no clear change in Tnf reporter", "note": "The deposit covers about 17,000 reagents; below is a random part of them. Of all reagents, about 1,110 (6.6%) got an active call. 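Active means lowered or raised reporter signal; replicate intensities are raw and not normalised per plate.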 Not all columns of the deposit are shown."}
{"gene": "Kcnk18", "Tnf reporter robust z-score": 2.87, "fewer than 50 cells in well": "enough cells in well", "Outcome": "inactive"}
{"gene": "Vmn1r65", "Tnf reporter robust z-score": 2.25, "fewer than 50 cells in well": "enough cells in well", "Outcome": "inactive"}
{"gene": "Or6d14", "Tnf reporter robust z-score": -1.17, "fewer than 50 cells in well": "enough cells in well", "Outcome": "inactive"}
{"gene": "Sh3gl1", "Tnf reporter robust z-score": 0.26, "fewer than 50 cells in well": "enough cells in well", "Outcome": "inactive"}
{"gene": "Ttll9", "Tnf reporter robust z-score": 6.36, "fewer than 50 cells in well": "enough cells in well", "Outcome": "active"}
{"gene": "Wbp4", "Tnf reporter robust z-score": -0.68, "fewer than 50 cells in well": "enough cells in well", "Outcome": "inactive"}
{"gene": "Lmtk2", "Tnf reporter robust z-score": 3.66, "fewer than 50 cells in well": "enough cells in well", "Outcome": "active"}
{"gene": "A030005K14Rik", "Tnf reporter robust z-score": -1.04, "fewer than 50 cells in well": "enough cells in well", "Outcome": "inactive"}
{"gene": "Ebf1", "Tnf reporter robust z-score": 1.27, "fewer than 50 cells in well": "enough cells in well", "Outcome": "inactive"}
{"gene": "Ccdc178", "fewer than 50 cells in well": "fewer than 50 cells per well; well left out of calls", "Outcome": "inactive"}
{"gene": "Or13a27", "Tnf reporter robust z-score": -0.78, "fewer than 50 cells in well": "enough cells in well", "Outcome": "inactive"}
{"gene": "Snd1", "Tnf reporter robust z-score": 1.26, "fewer than 50 cells in well": "enough cells in well", "Outcome": "inactive"}
{"gene": "Map3k6", "Tnf reporter robust z-score": -1.27, "fewer than 50 cells in well": "enough cells in well", "Outcome": "inactive"}
{"gene": "BC051665", "Tnf reporter robust z-score": 3.16, "fewer than 50 cells in well": "enough cells in well", "Outcome": "active"}
{"gene": "Meox2", "Tnf reporter robust z-score": -0.41, "fewer than 50 cells in well": "enough cells in well", "Outcome": "inactive"}
{"gene": "Ddx51", "fewer than 50 cells in well": "fewer than 50 cells per well; well left out of calls", "Outcome": "inactive"}
{"gene": "Ephb6", "Tnf reporter robust z-score": -0.81, "fewer than 50 cells in well": "enough cells in well", "Outcome": "inactive"}
{"gene": "Coq8a", "Tnf reporter robust z-score": 0.6, "fewer than 50 cells in well": "enough cells in well", "Outcome": "inactive"}
{"gene": "Atp1a1", "Tnf reporter robust z-score": 0.54, "fewer than 50 cells in well": "enough cells in well", "Outcome": "inactive"}
{"gene": "Cox4i2", "Tnf reporter robust z-score": -0.84, "fewer than 50 cells in well": "enough cells in well", "Outcome": "inactive"}
{"gene": "Strn3", "Tnf reporter robust z-score": 3.58, "fewer than 50 cells in well": "enough cells in well", "Outcome": "active"}

In a second layout: 2 of the entries above
Or6d14
- Tnf reporter robust z-score: -1.17
- fewer than 50 cells in well: enough cells in well
- Outcome: inactive

Sh3gl1
- Tnf reporter robust z-score: 0.26
- fewer than 50 cells in well: enough cells in well
- Outcome: inactive
